Paper PMC9477845

Protein sequences, listed by entry. Tags and fused reporters are not part of them.
UniProt Q16877: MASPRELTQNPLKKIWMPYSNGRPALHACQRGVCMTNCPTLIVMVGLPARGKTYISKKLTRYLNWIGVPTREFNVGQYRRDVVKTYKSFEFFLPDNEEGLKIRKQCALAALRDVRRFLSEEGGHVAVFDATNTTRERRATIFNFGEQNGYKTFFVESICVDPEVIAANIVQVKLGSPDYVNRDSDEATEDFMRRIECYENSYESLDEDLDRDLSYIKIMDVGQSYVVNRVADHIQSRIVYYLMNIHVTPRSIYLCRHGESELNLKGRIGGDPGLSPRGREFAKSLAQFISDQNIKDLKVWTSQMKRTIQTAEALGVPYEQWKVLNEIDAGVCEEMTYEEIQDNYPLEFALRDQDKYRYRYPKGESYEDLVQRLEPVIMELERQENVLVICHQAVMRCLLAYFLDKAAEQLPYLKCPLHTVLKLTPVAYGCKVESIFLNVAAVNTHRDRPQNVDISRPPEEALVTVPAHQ
UniProt Q9P1W9: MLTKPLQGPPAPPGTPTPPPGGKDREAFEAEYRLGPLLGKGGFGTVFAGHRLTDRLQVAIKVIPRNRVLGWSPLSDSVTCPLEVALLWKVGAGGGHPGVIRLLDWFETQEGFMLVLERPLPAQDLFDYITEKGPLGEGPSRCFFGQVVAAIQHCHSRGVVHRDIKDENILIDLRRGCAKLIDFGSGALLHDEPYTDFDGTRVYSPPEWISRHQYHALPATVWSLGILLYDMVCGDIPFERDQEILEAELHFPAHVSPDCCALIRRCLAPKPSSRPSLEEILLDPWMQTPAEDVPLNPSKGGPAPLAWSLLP

Biological target: PFKFB4 (6-phosphofructose-2-kinase/fructose-2,6-bisphosphatase 4), endogenous (human (endogenous in ESC endometriosis stromal cells)) (UniProt Q16877)
Assay: affinity purification with mass spectrometry; PFKFB4 immunoprecipitated from EM cells, precipitate analysed by mass spectrometry

PIM2 (proviral insertion in murine lymphomas 2), endogenous (from UniProt Q9P1W9 1-311)
binding: binds

No constants are given. Whether binding was seen depends on the method and setting. In cells and extracts the contact can be indirect. These calls come from enrichment with a bait or labelling near it, and not all partners need be listed.
